Measurements reported in patent US20040151715A1 (SCHERING, published 2004).
Numbering of substitutions follows the chain as printed. Numbers in names are those of the source. No constants are given. Whether binding was seen depends on the method and setting. In cells and extracts the contact can be indirect. Some results given as binding are weak or reduced against the parent protein; the word gives no strength. One block for each binder: values may come before it.

How the values were obtained:
[1] = target: T1, human ADAM33 catalytic domain (human, UniProt Q9BZ11 204-409); assay: co-purification of the pro/CAT complex
T1 construct: Expressed in Drosophila S2 cells as pre/pro/cat with a C-terminal Ser-Gly-His6 tag and processed at RGRR203/EARR; also called CAT domain; protease domain
T1 sequence: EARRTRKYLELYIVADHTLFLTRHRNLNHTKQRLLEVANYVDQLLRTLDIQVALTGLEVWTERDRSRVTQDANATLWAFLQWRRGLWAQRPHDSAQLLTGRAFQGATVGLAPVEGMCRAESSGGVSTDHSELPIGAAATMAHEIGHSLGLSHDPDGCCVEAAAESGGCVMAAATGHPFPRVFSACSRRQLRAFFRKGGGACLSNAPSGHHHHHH

[2] = target: T1, human ADAM33 catalytic domain; assay: co-purification through chromatography; not separated by APMA, iodoacetamide or nonionic detergents
[3] = target: T2, mouse ADAM33 CAT domain (mouse) (UniProt Q923W9); assay: co-purification of mouse ADAM33 pro and CAT from Drosophila S2 conditioned medium
T2 sequence (looked up): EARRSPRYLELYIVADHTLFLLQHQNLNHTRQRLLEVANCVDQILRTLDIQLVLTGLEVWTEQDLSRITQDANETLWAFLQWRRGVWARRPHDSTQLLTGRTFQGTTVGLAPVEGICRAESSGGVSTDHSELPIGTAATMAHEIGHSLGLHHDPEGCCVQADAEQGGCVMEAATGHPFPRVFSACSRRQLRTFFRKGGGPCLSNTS

B1: human ADAM33 pro domain C179A/D183N (protein)
chain: LQGHIPGQPVTPHWVLDGQPWRTVSLEEPVSKPDMGLVALEAEGQELLLELEKNHRLLAPGYIETHYGPDGQPVVLAPNHTDHCHYQGRVRGFPDSWVVLCTCSGMSGLITLSRNASYYLRPWPPRGSKDFSTHEIFRMEQLLTWKGTAGHRNPGNKAGMTSLPGGPQSRGRR
binding [1]: binds

B2: human ADAM33 pro domain (wild type) (protein)
chain: B1 chain with A149C, N153D
binding [2]: binds

Now from value to binder:

binding [1]: binds
B3: human ADAM33 pro domain K176I/C179A (protein)
chain: B1 chain with K146I, N153D

binding [3]: binds
B4: mouse ADAM33 pro domain (protein, UniProt Q923W9 30-204, looked up)
chain: RMFPGNAHGELVTPHWILEGRLWLKVTLEEPILKPDSVLVALEAEGQDLLLELEKKHKLLAPGYTETHYRPDGHPVVLSPNHTDHCQYHGRVRGFRESWVVLSTCSGMSGLIVLSSKVSYYLQPRTPGDTKDFPTHEIFRMEQLFTWRGVQRDKNSQYKAGMASLPHVPQSRVRR
